In article doi:10.1101/2020.12.22.424016:
Where two headings read alike, the source gives them in different places. No constants are given. Whether binding was seen depends on the method and setting. Some binding calls cover weakened binding; strength is not graded here. Sequences can lack the tags named with a protein. Values belong to the molecule of their own block, whether it stands above or below them.

Protein sequences, listed by entry. Tags and fused reporters are not part of them.
UniProt Q39255: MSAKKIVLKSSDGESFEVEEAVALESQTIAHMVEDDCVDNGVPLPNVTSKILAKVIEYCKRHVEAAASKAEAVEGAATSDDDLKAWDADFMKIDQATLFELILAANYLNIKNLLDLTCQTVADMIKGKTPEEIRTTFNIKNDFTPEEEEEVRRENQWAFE

Columns and labels:
Assay in all cases: two-hybrid
[1] = target: T1, F-BOX STRESS INDUCED 4 (FBS4), yeast two-hybrid fusion (Arabidopsis thaliana) (UniProt Q5XF11)
T1 sequence: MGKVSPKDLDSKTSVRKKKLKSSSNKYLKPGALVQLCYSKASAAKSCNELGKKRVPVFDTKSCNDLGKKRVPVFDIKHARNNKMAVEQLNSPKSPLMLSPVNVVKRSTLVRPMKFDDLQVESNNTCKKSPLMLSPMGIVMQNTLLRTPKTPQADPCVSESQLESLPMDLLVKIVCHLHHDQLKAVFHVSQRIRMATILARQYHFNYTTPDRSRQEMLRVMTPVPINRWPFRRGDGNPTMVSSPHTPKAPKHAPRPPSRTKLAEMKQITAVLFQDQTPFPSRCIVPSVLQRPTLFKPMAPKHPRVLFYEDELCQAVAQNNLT

[2] = target: T2, F-BOX STRESS INDUCED 1 (FBS1), full-length, yeast two-hybrid fusion (Arabidopsis thaliana) (UniProt Q8GX77)
T2 sequence: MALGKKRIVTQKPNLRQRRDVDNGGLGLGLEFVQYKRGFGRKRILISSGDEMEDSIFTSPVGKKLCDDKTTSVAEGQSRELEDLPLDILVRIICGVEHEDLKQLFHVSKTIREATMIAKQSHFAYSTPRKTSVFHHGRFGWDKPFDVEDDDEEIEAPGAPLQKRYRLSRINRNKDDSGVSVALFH

[3] = target: T3, F-BOX STRESS INDUCED 2 (FBS2), yeast two-hybrid fusion (Arabidopsis thaliana) (UniProt O65416)
T3 sequence: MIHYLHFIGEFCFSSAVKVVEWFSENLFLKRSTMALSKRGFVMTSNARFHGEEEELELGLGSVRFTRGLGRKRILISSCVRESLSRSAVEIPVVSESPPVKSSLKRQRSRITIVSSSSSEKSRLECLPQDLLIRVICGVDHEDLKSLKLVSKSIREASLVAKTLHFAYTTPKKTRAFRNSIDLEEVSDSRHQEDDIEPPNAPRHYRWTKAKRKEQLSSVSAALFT

[4] = target: T4, F-BOX STRESS INDUCED 3 (FBS3), yeast two-hybrid fusion (Arabidopsis thaliana) (UniProt Q9S9T6)
T4 sequence: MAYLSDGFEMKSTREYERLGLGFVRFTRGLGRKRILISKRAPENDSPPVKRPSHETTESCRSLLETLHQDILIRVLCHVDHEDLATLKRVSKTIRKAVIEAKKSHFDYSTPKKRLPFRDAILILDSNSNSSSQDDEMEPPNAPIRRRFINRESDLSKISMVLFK

[5] = target: T2, F-BOX STRESS INDUCED 1 (FBS1), full-length, yeast two-hybrid fusion (Arabidopsis thaliana); remark: listed apart in the source

binding [1]: binds | binding [2]: binds | binding [3]: binds weakly | binding [4]: binds
Molecule: Arabidopsis SKP1 (ASK1), yeast two-hybrid fusion (from UniProt Q39255 1-160)

binding [5]: no binding
B1: TOPLESS (TPL), yeast two-hybrid fusion (protein, UniProt Q94AI7 1-1131)
chain: MSSLSRELVFLILQFLDEEKFKETVHKLEQESGFFFNMKYFEDEVHNGNWDEVEKYLSGFTKVDDNRYSMKIFFEIRKQKYLEALDKHDRPKAVDILVKDLKVFSTFNEELFKEITQLLTLENFRENEQLSKYGDTKSARAIMLVELKKLIEANPLFRDKLQFPTLRNSRLRTLINQSLNWQHQLCKNPRPNPDIKTLFVDHSCGPPNGARAPSPVNNPLLGGIPKAGGFPPLGAHGPFQPTASPVPTPLAGWMSSPSSVPHPAVSAGAIALGGPSIPAALKHPRTPPTNASLDYPSADSEHVSKRTRPMGISDEVNLGVNMLPMSFSGQAHGHSPAFKAPDDLPKTVARTLSQGSSPMSMDFHPIKQTLLLVGTNVGDIGLWEVGSRERLVQKTFKVWDLSKCSMPLQAALVKEPVVSVNRVIWSPDGSLFGVAYSRHIVQLYSYHGGEDMRQHLEIDAHVGGVNDISFSTPNKQLCVITCGDDKTIKVWDAATGVKRHTFEGHEAPVYSVCPHYKENIQFIFSTALDGKIKAWLYDNMGSRVDYDAPGRWCTTMAYSADGTRLFSCGTSKDGESFIVEWNESEGAVKRTYQGFHKRSLGVVQFDTTKNRYLAAGDDFSIKFWDMDAVQLLTAIDGDGGLQASPRIRFNKEGSLLAVSGNENVIKIMANSDGLRLLHTFENISSESSKPAINSIAAAAAAAATSAGHADRSANVVSIQGMNGDSRNMVDVKPVITEESNDKSKIWKLTEVSEPSQCRSLRLPENLRVAKISRLIFTNSGNAILALASNAIHLLWKWQRNERNATGKATASLPPQQWQPASGILMTNDVAETNPEEAVPCFALSKNDSYVMSASGGKISLFNMMTFKTMATFMPPPPAATFLAFHPQDNNIIAIGMDDSTIQIYNVRVDEVKSKLKGHSKRITGLAFSNVLNVLVSSGADAQLCVWNTDGWEKQRSKVLPLPQGRPNSAPSDTRVQFHQDQAHFLVVHETQLAIYETTKLECMKQWAVRESLAPITHATFSCDSQLVYASFMDATVCVFSSANLRLRCRVNPSAYLPASLSNSNVHPLVIAAHPQEPNMFAVGLSDGGVHIFEPLESEGKWGVAPPAENGSASGAPTAPSVGASASDQPQR
